The target of assay [1] is Smad4 (epitope-tagged, heteromerization experiment of Example 4) (Homo sapiens (Human)) (UniProt Q13485). Put plainly: co-immunoprecipitation and Western blot from COS-7 cells. In general terms: A western blot detects proteins with antibodies after separation by electrophoresis.
Assay [2] deals with Smad3 (epitope-tagged, heteromerization experiment of Example 4) (Homo sapiens (Human)) (UniProt P84022). In words: co-immunoprecipitation and Western blot from COS-7 cells with constitutively active TβR-I.
Assay [3] deals with T1, kinase-defective (KR) HA-tagged TβR-I (UniProt P36897).
T1 sequence (looked up): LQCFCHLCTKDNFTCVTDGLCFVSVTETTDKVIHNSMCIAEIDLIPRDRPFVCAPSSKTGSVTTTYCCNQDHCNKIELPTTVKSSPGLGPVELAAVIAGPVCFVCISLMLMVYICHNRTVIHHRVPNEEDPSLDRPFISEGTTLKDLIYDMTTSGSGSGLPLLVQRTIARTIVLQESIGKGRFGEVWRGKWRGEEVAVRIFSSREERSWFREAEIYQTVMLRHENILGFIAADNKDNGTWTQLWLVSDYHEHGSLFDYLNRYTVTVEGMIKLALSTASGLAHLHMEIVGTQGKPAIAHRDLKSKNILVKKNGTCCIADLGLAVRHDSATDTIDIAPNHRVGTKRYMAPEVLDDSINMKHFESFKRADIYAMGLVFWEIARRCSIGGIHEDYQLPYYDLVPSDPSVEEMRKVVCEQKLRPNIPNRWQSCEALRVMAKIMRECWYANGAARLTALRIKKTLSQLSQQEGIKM
Put plainly: affinity cross-linking with 125I-TGF-β1, anti-FLAG immunoprecipitation from COS-7 lysates, autoradiography.

Chains of the proteins cited; added tags and fusions are not shown. Lines headed by an entry give the natural chain unless they say otherwise; changes in a name come on top.
UniProt Q13485: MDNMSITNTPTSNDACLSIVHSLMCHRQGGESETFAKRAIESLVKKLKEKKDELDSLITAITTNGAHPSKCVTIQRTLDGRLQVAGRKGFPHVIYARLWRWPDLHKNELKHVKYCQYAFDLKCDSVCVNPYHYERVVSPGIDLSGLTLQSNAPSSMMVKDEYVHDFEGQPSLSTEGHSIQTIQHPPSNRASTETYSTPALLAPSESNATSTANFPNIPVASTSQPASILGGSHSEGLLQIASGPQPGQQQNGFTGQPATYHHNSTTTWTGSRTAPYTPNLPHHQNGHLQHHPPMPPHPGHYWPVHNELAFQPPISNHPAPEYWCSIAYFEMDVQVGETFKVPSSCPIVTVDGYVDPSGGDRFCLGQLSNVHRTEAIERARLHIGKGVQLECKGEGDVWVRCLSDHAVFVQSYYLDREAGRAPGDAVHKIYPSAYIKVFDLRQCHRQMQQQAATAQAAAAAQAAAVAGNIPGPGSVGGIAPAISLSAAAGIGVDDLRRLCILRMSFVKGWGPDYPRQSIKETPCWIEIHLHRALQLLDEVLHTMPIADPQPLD
UniProt P84022: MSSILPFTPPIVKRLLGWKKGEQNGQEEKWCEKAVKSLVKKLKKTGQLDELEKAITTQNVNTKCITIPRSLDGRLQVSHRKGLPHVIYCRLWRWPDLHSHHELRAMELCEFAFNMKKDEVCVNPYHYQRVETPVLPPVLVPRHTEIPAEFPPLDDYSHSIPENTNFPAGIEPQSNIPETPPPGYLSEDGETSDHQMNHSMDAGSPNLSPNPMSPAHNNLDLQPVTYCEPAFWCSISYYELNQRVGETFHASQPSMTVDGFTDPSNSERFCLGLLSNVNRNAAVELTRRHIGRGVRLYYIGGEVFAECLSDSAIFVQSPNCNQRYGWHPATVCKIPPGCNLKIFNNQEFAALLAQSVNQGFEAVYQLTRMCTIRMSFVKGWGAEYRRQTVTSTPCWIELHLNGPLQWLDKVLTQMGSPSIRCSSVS
UniProt Q62432: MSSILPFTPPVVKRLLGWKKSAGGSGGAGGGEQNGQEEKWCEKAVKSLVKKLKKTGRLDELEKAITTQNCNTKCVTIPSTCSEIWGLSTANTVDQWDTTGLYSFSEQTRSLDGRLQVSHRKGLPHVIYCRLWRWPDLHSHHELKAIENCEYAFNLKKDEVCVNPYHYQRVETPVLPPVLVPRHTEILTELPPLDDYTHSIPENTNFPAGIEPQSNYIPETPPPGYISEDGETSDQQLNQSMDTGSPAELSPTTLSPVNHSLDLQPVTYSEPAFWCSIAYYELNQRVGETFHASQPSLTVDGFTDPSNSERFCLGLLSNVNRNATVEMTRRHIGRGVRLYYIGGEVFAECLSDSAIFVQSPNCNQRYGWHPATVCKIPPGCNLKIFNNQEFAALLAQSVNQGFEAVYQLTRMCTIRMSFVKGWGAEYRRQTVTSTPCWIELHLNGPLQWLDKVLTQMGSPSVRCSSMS

Three substances from patent US20040053278A1 can be followed below.

Results are given in words; binding and its absence hold for the method and conditions named. For part of these data: In cells and extracts the contact can be indirect. Some results given as binding are weak or reduced against the parent protein; the word gives no strength. For part of these data: Where a sequence is shown, tags or fusion partners need not be part of it.

With “Smad2 (epitope-tagged, heteromerization experiment of Example 4) (from UniProt Q62432 2-467)”, in assay [1], the binding entry is recorded as “binds”. Turning to “Smad4 (epitope-tagged, heteromerization experiment of Example 4) (from UniProt Q13485 1-552)”, the binding result in assay [2] is listed as “binds”. “FLAG-tagged Smad2 (from UniProt Q62432 2-467)”: in assay [3], the binding result is recorded as “binds”.
